Experimental findings from PubChem BioAssay AID270 (DTP/NCI, 2004) are described below.

The assay concerns BDF1 mice, s.c. Lewis lung carcinoma, T/C %. Description: NCI In Vivo Anticancer Drug Screen. Data for tumor model Lewis Lung Carcinoma (subcutaneous) in B6D2F1 (BDF1) mice. The settings on record: T/C endpoint: median survival time, schedule: Q01DX009 (ip), higher T/C = longer survival. On the procedure:
The antitumor activity of compounds was measured in mice bearing transplantable tumors. Survival or tumor size were measured and the results are expressed as the measurement made in the treated group (T) divided by the measurement made in the vehicle treated control group (C). The tumor model used in this assay is Lewis Lung Carcinoma (subcutaneous) in B6D2F1 (BDF1) mice

The list is a part of this screen's results and no random one: it covers a few groups of compounds. Other doses and runs of a compound may be missing. T/C is the treated group as % of the vehicle group. Where survival is the endpoint, the PubChem record calls one and a half times the control and up active, and a quarter to a half above the control has no call in these data; cut-offs in other NCI protocols can differ. Schedules are NCI's codes, taken here to give the interval after Q, in days (D) or hours (H), and the number of doses after X. Some T/C values are marked as having no survivor count here; that says nothing about deaths at the dose. Some doses were run more than once; the results are listed from low to high.

Turning to `CC(=O)OC[C@]12C[C@H](OC(=O)CC(C)C)C(C)=C[C@H]1OC1[C@H](O)[C@@H](OC(C)=O)[C@@]2(C)[C@@]12CO2`, the T/C (dose: 0.12 mg/kg/injection, vehicle: saline) was 106 % of control [survivor count not shown]; the T/C (dose: 0.25 mg/kg/injection, vehicle: saline) is 123 % of control [survivor count not shown]; the T/C (dose: 0.5 mg/kg/injection, vehicle: saline) was 90 % of control [survivor count not shown]; the T/C (dose: 1.0 mg/kg/injection, vehicle: saline) is 100 % of control [survivor count not shown].

`CC1=C[C@H]2O[C@@H]3C[C@H]4OC(=O)/C=C\C=C\C(C(C)O)OCC[C@@H](C)[C@H](O)C(=O)OC[C@@]2(CC1)[C@]4(C)[C@]31CO1` (some centres undefined): the T/C is, setting by setting: (dose: 0.04 mg/kg/injection, vehicle: saline with Tween-80) 106 [survivor count not shown] and 123 % of control [survivor count not shown]; (dose: 0.08 mg/kg/injection, vehicle: saline with Tween-80) 95 % of control [survivor count not shown]; (dose: 0.15 mg/kg/injection, vehicle: saline with Tween-80) 141 % of control [survivor count not shown].

For the compound `CC(=O)OCC12CCC(C)=CC1OC1C(O)C(OC(C)=O)C2(C)C12CO2` (centres undefined), the T/C reads like this: (dose: 0.25 mg/kg/injection, vehicle: Klucel (hydroxypropylcellulose) (HPC)) 107 % of control [survivor count not shown]; (dose: 0.5 mg/kg/injection, vehicle: Klucel (hydroxypropylcellulose) (HPC)) 102 % of control [survivor count not shown].
